Data on one molecule can be found in publication doi:10.1101/2020.10.02.323899.

For the experiment, the target named is glutathione S-transferase (GST)-fused Xenopus ADF/cofilin (XAC) (Xenopus). Nature of the experiment: pull-down.

Results are given in words; binding and its absence hold for the method and conditions named. Binding seen in cells or lysates may run through a third protein. Binding can be weak; no strength is given.

B1: gelsolin (protein, UniProt P14885 1-417)
chain: FISKMGYPKQTQVQVLPESGETPLFKQFFKNWRDKEATDGMGVAYVPNHIAKIENVPFDVTVLHESPAMAAQHGMVDDGSGKKQIWRIENCEKVPVLESHYGQFYGGDSYIILYHYKSGGKQGQIIYTWQGDDSTKDEITASAILSAQLDEELGGGPVQVRVVQGKEPAHLISLFGGKPMIIYKGGTSREGGQTKDANVRLFQVRTSSSGFSRAVEVDNTASNLNSNDAFVLTTPSASYLWVGQGSTNVEKNGAKELLKILGVSASEIPEGQETDDFWGALGGKADYRTSARLKDKLNAHPPRLFACSNKTGRFIIEEVPGEISQDDLATDDVMLLDTWDQVYVWVGNEAQEDEKKEAIASAYKYIESDPANRDKRTPVAITKQGFEPPTFIGWFLGWEADYWDVDPLERAMAGLSS
As to B1, the binding entry is given as “binds”.
